Assay results reported in US20080274100A1.

Legend:
[1] = target: platelet GPIb, rabbit (rabbit platelets) (rabbit); assay: FACS on rabbit platelets
[2] = target: platelet GPIb, guinea pig (guinea pig platelets) (guinea pig); assay: FACS on guinea pig platelets
[3] = target: platelet GPIb, rabbit (rabbit platelets) (rabbit); assay: FACS on rabbit platelets, relative binding
[4] = target: platelet GPIb, guinea pig (guinea pig platelets) (guinea pig); assay: FACS on guinea pig platelets, relative binding

Measured: binding

B1: S11 scFv (scFv)
scFv: EVQLVESGGGVVRPGGSLRLSCAASGFTFDLNPKVKHMWVRQAPGKGLEWVSGINWNGGSTGYADSVKGRFTISRDNAKNSLYLQMNSLRAEDTAVYYCARLRYPFFWGQGTLVTVSRGGGGSGGGGSGGGGSSELTQDPAVSVALGQTVRITCQGDSLRSYYASWYQQKPGQAPVLVIYGKNNRPSGIPDRFSGSSSGNTASLTITGAQAEDEADYYCNSRDSSGNHVVFGGGTKLTVLGAAAEQKLISEEDLNGAA
binds: all assays above

These are yes or no findings as the source states them, for the method shown. Binding can be weak; no strength is given.
